For the test, the target named is endogenous full length TET1 with C-terminal 3xFLAG tag, wild type (WT mESCs) (mouse (endogenous in LF2 mESCs)) (UniProt Q3URK3). The experiment in a line: co-IP; FLAG IP from WT and D2018A mESCs (TET1-3xFLAG from the endogenous locus); western blot for FLAG and OGT.

Chains of the proteins cited; added tags and fusions are not shown.
UniProt Q3URK3: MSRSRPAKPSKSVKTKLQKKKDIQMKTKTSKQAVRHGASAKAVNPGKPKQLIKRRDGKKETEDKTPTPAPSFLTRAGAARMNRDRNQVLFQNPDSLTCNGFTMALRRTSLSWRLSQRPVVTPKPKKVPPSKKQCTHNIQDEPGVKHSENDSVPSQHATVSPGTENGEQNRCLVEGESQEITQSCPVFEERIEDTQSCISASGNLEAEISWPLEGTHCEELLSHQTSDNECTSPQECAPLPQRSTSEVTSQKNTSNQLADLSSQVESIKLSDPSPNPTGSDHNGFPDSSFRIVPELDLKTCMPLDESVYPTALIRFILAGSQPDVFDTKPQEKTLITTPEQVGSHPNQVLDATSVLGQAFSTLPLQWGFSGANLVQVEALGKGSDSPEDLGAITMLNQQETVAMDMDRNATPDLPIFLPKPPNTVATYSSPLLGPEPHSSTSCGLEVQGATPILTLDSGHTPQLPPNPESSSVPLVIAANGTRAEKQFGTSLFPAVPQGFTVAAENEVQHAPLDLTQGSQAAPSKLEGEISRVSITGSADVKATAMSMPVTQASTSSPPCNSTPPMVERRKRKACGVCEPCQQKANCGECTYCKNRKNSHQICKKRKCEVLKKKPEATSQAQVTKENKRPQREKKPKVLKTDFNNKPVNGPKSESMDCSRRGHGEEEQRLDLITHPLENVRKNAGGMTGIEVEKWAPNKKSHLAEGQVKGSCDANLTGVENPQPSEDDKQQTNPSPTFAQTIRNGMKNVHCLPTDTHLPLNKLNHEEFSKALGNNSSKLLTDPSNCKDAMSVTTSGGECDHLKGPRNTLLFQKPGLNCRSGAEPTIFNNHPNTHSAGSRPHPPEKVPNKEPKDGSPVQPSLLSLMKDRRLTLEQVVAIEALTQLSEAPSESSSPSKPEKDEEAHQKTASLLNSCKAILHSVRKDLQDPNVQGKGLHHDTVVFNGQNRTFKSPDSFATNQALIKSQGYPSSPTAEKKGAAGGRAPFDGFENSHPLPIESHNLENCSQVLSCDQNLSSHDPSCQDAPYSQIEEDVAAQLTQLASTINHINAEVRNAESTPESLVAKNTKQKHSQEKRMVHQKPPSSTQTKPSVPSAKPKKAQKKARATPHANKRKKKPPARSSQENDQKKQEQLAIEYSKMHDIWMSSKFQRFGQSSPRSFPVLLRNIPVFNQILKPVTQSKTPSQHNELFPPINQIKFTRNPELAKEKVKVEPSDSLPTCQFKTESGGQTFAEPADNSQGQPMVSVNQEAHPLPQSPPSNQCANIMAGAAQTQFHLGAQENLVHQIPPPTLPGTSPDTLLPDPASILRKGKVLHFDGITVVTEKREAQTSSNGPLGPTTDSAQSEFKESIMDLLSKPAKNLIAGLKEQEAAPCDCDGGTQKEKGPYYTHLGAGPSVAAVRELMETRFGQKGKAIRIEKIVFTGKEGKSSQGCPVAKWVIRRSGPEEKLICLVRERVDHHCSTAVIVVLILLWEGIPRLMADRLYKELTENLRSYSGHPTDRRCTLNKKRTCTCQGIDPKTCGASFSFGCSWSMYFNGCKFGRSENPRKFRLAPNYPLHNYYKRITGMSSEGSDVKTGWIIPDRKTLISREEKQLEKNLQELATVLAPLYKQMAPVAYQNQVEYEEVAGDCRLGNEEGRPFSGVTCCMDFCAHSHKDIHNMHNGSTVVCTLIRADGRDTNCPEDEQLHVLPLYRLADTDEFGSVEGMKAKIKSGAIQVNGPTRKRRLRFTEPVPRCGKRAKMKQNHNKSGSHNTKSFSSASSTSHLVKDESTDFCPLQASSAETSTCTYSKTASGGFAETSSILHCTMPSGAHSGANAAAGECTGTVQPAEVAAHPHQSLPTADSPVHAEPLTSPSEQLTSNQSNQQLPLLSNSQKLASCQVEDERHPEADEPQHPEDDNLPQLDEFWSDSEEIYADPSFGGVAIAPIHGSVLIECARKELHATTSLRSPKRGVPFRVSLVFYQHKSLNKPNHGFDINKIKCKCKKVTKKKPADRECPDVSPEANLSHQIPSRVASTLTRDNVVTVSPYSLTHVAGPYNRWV

Results are given in words; binding and its absence hold for the method and conditions named. In cells and extracts the contact can be indirect. Some entries that bind do so weakly or less than the wild type.

B1: endogenous OGT of mouse embryonic stem cells (enzyme, UniProt Q8CGY8 1-1046)
chain: MASSVGNVADSTEPTKRMLSFQGLAELAHREYQAGDFEAAERHCMQLWRQEPDNTGVLLLLSSIHFQCRRLDRSAHFSTLAIKQNPLLAEAYSNLGNVYKERGQLQEAIEHYRHALRLKPDFIDGYINLAAALVAAGDMEGAVQAYVSALQYNPDLYCVRSDLGNLLKALGRLEEAKACYLKAIETQPNFAVAWSNLGCVFNAQGEIWLAIHHFEKAVTLDPNFLDAYINLGNVLKEARIFDRAVAAYLRALSLSPNHAVVHGNLACVYYEQGLIDLAIDTYRRAIELQPHFPDAYCNLANALKEKGSVAEAEDCYNTALRLCPTHADSLNNLANIKREQGNIEEAVRLYRKALEVFPEFAAAHSNLASVLQQQGKLQEALMHYKEAIRISPTFADAYSNMGNTLKEMQDVQGALQCYTRAIQINPAFADAHSNLASIHKDSGNIPEAIASYRTALKLKPDFPDAYCNLAHCLQIVCDWTDYDERMKKLVSIVAEQLEKNRLPSVHPHHSMLYPLSHGFRKAIAERHGNLCLDKINVLHKPPYEHPKDLKLSDGRLRVGYVSSDFGNHPTSHLMQSIPGMHNPDKFEVFCYALSPDDGTNFRVKVMAEANHFIDLSQIPCNGKAADRIHQDGIHILVNMNGYTKGARNELFALRPAPIQAMWLGYPGTSGALFMDYIITDQETSPAEVAEQYSEKLAYMPHTFFIGDHANMFPHLKKKAVIDFKSNGHIYDNRIVLNGIDLKAFLDSLPDVKIVKMKCPDGGDNPDSSNTALNMPVIPMNTIAEAVIEMINRGQIQITINGFSISNGLATTQINNKAATGEEVPRTIIVTTRSQYGLPEDAIVYCNFNQLYKIDPSTLQMWANILKRVPNSVLWLLRFPAVGEPNIQQYAQNMGLPQNRIIFSPVAPKEEHVRRGQLADVCLDTPLCNGHTTGMDVLWAGTPMVTMPGETLASRVAASQLTCLGCLELIAKSRQEYEDIAVKLGTDLEYLKKIRGKVWKQRISSPLFNTKQYTMELERLYLQMWEHYAAGNKPDHMIKPVEVTESA
B1: the binding result is given as “binds”.

(Values after paper PMC6214653.)
